Reference: PubChem BioAssay AID720505 (Drosophila RNAi Screening Center, 2013)

Aim: 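Fly regulators or components of the CRAC channel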 (primary screen)
Cell system: Drosophila S2R+ cells
Reagents: long dsRNA against Drosophila genes
Treatment: thapsigargin (2 µM) in calcium-free buffer to empty internal stores, then 2 mM calcium added back
Detection: 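Fluo-4 signal in 384-well plates read on a FLIPR after thapsigargin (2 µM, calcium-free) store depletion and 2 mM calcium add-back; unnormalised mean endpoint per well; screen run twice, selected wells retested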
Scale: calcium signal and retest calcium signal: higher = more calcium entry after store depletion
Rule for the call: 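Knock-downs counted as hits when calcium entry dropped relative to STIM1 positive and Rho1 negative controls present on each plate; roughly 1500 genes called, with reductions of differing size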
Meaning of the calls: active = called as lowering calcium entry; inactive = not called
The deposit covers about 20,000 reagents; this is an unselected part of those with a known target gene and a result. Of all reagents, about 2,100 (10%) were called active. 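Raw plate signals without normalisation; calls rest on control-based scores that were not deposited; replicate 2 separates called from uncalled poorly.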 The numbers tell different reagents against one gene apart. A plus sign joins genes that one reagent is predicted to hit. Not stated in the record: the amount of reagent, the time to read-out.

target | dsRNA no. | calcium signal, replicate 1 | calcium signal, replicate 2 | retest calcium signal, replicate 1 | retest calcium signal, replicate 2 | activity call
CG7139 | 1 | 108 | 112 | – | – | inactive
vls (valois) | 1 | 111 | 133 | – | – | inactive
CG4483 | 1 | 104 | 115 | – | – | inactive
Mob4 (MOB kinase activator 4) | 1 | 170 | 126 | – | – | inactive
CG8617 | 1 | 80.9 | 138 | – | – | inactive
PIG-S (Phosphatidylinositol glycan anchor biosynthesis class S) | 1 | 250 | 275 | – | – | inactive
PIG-S (Phosphatidylinositol glycan anchor biosynthesis class S) | 2 | 146 | 108 | – | – | inactive
PIG-S (Phosphatidylinositol glycan anchor biosynthesis class S) | 3 | 179 | 281 | – | – | inactive
CG3546 | 1 | 208 | 105 | – | – | inactive
LysB (Lysozyme B) | 1 | 65 | 120 | – | – | inactive
Pu (Punch) | 1 | 165 | 74.5 | – | – | inactive
CG14759 | 1 | 167 | 190 | – | – | inactive
Lcp65Ae | 1 | 78.2 | 48.2 | – | – | inactive
ArfGAP3 (ADP-ribosylation factor GTPase activating protein 3) | 1 | 147 | 146 | – | – | inactive
Mcm7 (Minichromosome maintenance 7) | 1 | 87 | 116 | – | – | inactive

Looked up above.
Result for ArfGAP3 (ADP-ribosylation factor GTPase activating protein 3) under “calcium signal, replicate 2”: 146
For “activity call”, CG14759 reads inactive
Entry of PIG-S (Phosphatidylinositol glycan anchor biosynthesis class S) #1 under “calcium signal, replicate 2”: 275
CG3546, calcium signal, replicate 1 → 208

Further reagents follow.
target | dsRNA no. | calcium signal, replicate 1 | calcium signal, replicate 2 | retest calcium signal, replicate 1 | retest calcium signal, replicate 2 | activity call
CG1663 | 1 | 110 | 159 | – | – | inactive
CG1663 | 2 | 112 | 182 | – | – | inactive
CG31664 | 1 | 99.7 | 205 | – | – | inactive
CG14995 | 1 | 82.1 | 91.5 | – | – | inactive
CG14995 | 2 | 133 | 141 | – | – | inactive
CG9582 | 1 | 132 | 127 | – | – | inactive
CG4896 | 1 | 144 | 300 | – | – | inactive
PGRP-SB1 (Peptidoglycan recognition protein SB1) | 1 | 78 | 179 | – | – | inactive
lncRNA:CR43493 + l(1)G0196 | 1 | 165 | 117 | – | – | inactive
CG9338 | 1 | 98.9 | 90 | – | – | inactive
Usp30 (Ubiquitin specific protease 30) | 1 | 220 | 103 | – | – | inactive
AP-1mu (Adaptor Protein complex 1, mu subunit) | 1 | 112 | 176 | – | – | inactive
Dop2R (Dopamine 2-like receptor) | 1 | 49.4 | 139 | – | – | active
Dop2R (Dopamine 2-like receptor) | 2 | 188 | 100 | – | – | inactive
CG7069 | 1 | 155 | 270 | – | – | inactive
RunxA (Runt related A) | 1 | 91.9 | 95.5 | – | – | inactive
RunxA (Runt related A) | 2 | 115 | 79.8 | – | – | inactive
RunxA (Runt related A) | 3 | 74 | 114 | 6692 | 142 | active
RunxA (Runt related A) | 4 | 84.2 | 179 | – | – | inactive
